{"source": "patent US20150196612A1", "about": "“Anti-enterovirus 71 steroidal saponins and their preparation” (Shanghai University of Traditional Chinese Medicine, priority 2014, published 2015)", "assay": "cytotoxicity (CC50) of steroidal saponins", "conditions": "read-out: CC50 (50% cytotoxic concentration); FIG. 6", "note": "Some results were stated once for a whole list of compounds, not compound by compound. For at least one compound, name, drawing or mass did not settle the structure."}
{"smiles": "C[C@H]1CC[C@@]2(OC1)O[C@H]1C[C@H]3[C@@H]4CC[C@@H]5C[C@@H](O[C@@H]6O[C@H](CO)[C@H](O)[C@H](O)[C@H]6O[C@@H]6O[C@H](CO)[C@@H](O)[C@H](O)[C@H]6O)CC[C@]5(C)[C@H]4CC[C@]3(C)[C@H]1[C@@H]2C", "note": "[compound 7, timosaponin A-III]", "values": [{"measurement": "CC50", "result": "< 25", "unit": "µM"}]}
